Literature values, collected in patent publication US8703812B2, “Protein synthesis required for long-term memory is induced by PKC activation on days preceding associative learning” (Blanchette Rockefeller Neurosciences Institute, priority 2005, dated 2014).
At least one structure is not confirmed: it was looked up by name or label, or the drawing left a doubt.

Conditions: cited from earlier work

In the case of CCC/C=C/C=C/C(=O)O[C@H]1/C(=C/C(=O)OC)C[C@H]2C[C@H]([C@@H](C)O)OC(=O)C[C@H](O)C[C@@H]3C[C@H](OC(C)=O)C(C)(C)[C@](O)(C[C@@H]4C/C(=C/C(=O)OC)C[C@H](/C=C/C(C)(C)[C@]1(O)O2)O4)O3 [bryostatin, bryostatin-1], the tumor promotion activity is listed as “devoid of tumor promotion activity”.
